Part of at least one peptide drawing is inferred or uncertain, most often the ends.
What was measured:
T4 antigen = assay: displacement of specific ¹²⁵I-gp120 binding to fresh rat hippocampal membranes
HTLV-III virus = assay: blockade of viral infection of human T cells (reverse transcriptase activity); format: cell-based, HTLV-III/LAV (HIV); human T cells; conditions: for rank order of potencies of the four peptides: inhibiting receptor binding and viral infectivity

Structure (SMILES)	concentration range that significantly inhibited ¹²⁵I-gp120 binding (T4 antigen; rat brain membranes, Fig. 2C)	concentrations required to achieve significant inhibition, relative to the active peptides (HTLV-III virus; human T cells) [fold higher]	blockade of viral infectivity (HTLV-III virus; in words, Figure 3)	rank order of potencies of the four peptides (HTLV-III virus; Figure 3)	loss of receptor binding activity (T4 antigen; relative to peptide T) [fold]
N=C(N)NCCC[C@H](N)C(=O)N1CCC[C@H]1C(=O)N[C@@H](CCCCN)C(=O)N1CCC[C@H]1C(=O)N[C@@H](CCC(N)=O)C(=O)N[C@@H](CCC(N)=O)C(=O)N[C@@H](Cc1ccccc1)C(=O)N[C@@H](Cc1ccccc1)C(=O)O [substance P [1-8], reference compound]	not	–	–	–	–
C[C@H](N)C(=O)N[C@@H](CO)C(=O)N[C@H](C(=O)N[C@H](C(=O)N[C@H](C(=O)N[C@@H](CC(N)=O)C(=O)N[C@@H](Cc1ccc(O)cc1)C(=O)N[C@@H](C(N)=O)[C@H](C)O)[C@@H](C)O)[C@@H](C)O)[C@@H](C)O [D-[Thre]₈-peptide T-amide]	–	100	greatly reduced blockade of viral infection	D-[Ala]₁-peptide T-amide > D-[Ala]₁-peptide T > peptide T > D-[Thre]₈-peptide T-amide	≥ 100
C[C@@H](N)C(=O)N[C@@H](CO)C(=O)N[C@H](C(=O)N[C@H](C(=O)N[C@H](C(=O)N[C@@H](CC(N)=O)C(=O)N[C@@H](Cc1ccc(O)cc1)C(=O)N[C@H](C(N)=O)[C@@H](C)O)[C@@H](C)O)[C@@H](C)O)[C@@H](C)O [D-[Ala]₁-peptide T-amide, D-Ala-Ser-Thr-Thr-Thr-Asn-Tyr-Thr-amide]	–	–	–	D-[Ala]₁-peptide T-amide > D-[Ala]₁-peptide T > peptide T > D-[Thre]₈-peptide T-amide	–

— patent EP0249390A2, “Synthetic peptides related to the HIV glycoprotein gp 120” (Pert, Candace B., priority 1986, dated 1987)
